These are yes or no findings as the source states them, for the method shown. In cells and extracts the contact can be indirect. Some binding calls cover weakened binding; strength is not graded here.
T1: low molecular weight protein tyrosine phosphatase (human (endogenous in GBM43)) (UniProt P24666)
T1 sequence: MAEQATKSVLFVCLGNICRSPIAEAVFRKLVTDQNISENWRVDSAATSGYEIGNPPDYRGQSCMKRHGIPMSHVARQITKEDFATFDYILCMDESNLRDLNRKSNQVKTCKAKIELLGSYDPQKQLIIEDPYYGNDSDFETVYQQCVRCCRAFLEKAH

By UniProt entry, the sequences of proteins in these tests, tags left out.
UniProt Q14247: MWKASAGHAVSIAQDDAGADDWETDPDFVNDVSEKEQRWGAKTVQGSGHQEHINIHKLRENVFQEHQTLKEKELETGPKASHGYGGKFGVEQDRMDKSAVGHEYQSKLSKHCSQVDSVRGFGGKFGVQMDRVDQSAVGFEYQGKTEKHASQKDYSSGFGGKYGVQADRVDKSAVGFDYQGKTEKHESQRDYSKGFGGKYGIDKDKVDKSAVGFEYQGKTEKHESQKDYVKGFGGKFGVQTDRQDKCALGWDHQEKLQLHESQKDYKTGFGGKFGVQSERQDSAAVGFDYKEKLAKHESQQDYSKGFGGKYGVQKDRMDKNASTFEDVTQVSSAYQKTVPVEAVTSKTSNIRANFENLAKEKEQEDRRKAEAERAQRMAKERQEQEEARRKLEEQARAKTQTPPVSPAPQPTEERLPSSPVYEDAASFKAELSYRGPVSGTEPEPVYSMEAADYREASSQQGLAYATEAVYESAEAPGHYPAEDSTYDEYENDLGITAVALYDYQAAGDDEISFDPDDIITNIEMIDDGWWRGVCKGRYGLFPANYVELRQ
UniProt Q96GD4: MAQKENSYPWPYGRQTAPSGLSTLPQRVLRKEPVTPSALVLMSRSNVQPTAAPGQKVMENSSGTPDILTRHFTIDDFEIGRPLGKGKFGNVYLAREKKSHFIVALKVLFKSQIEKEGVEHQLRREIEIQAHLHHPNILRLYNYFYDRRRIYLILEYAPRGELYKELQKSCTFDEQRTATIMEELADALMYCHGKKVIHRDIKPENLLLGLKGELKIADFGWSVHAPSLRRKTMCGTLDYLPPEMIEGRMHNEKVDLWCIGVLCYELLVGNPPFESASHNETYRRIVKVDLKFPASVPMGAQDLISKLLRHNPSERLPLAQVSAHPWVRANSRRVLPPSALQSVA


Key:
[1] = target: T1, low molecular weight protein tyrosine phosphatase (human (endogenous in GBM43)); test: co-IP; IP of cortactin from GBM43 cell lysates, blotting for aurora B and LMW-PTP; IP of LMW-PTP from the same lysates, blotting for cortactin; endogenous proteins; n = 3 technical replicates
[2] = target: cortactin (human (endogenous in GBM43)) (UniProt Q14247); test: as above

binding [1] | binding [2] | Molecule
binds | – | cortactin (from UniProt Q14247 1-550)
– | binds | aurora kinase B (from UniProt Q96GD4 1-344) (enzyme)
– | binds | low molecular weight protein tyrosine phosphatase (enzyme, UniProt P24666 1-158) MAEQATKSVLFVCLGNICRSPIAEAVFRKLVTDQNISENWRVDSAATSGYEIGNPPDYRGQSCMKRHGIPMSHVARQITKEDFATFDYILCMDESNLRDLNRKSNQVKTCKAKIELLGSYDPQKQLIIEDPYYGNDSDFETVYQQCVRCCRAFLEKAH

From publication PMC13463607
